In patent US12419871B2, “Biomolecules involved in Alzheimer's disease” (ELECTROPHORETICS LIMITED, priority 2015, dated 2025):

Assay: TMTcalibrator quantification of regulated proteins in AD CSF versus control
Set-up: species or system human
Conditions: CSF of AD patient versus control; non-modified peptides of each protein summed for three control and three AD cases

Molecule | Log2 AD/Control
Q96S59 (protein, UniProt Q96S59 1-729, looked up, full-length) MSGQPPPPPPQQQQQQQQLSPPPPAALAPVSGVVLPAPPAVSAGSSPAGSPGGGAGGEGLGAAAAALLLHPPPPPPPATAAPPPPPPPPPPPASAAAPASGPPAPPGLAAGPGPAGGAPTPALVAGSSAAAPFPHGDSALNEQEKELQRRLKRLYPAVDEQETPLPRSWSPKDKFSYIGLSQNNLRVHYKGHGKTPKDAASVRATHPIPAACGIYYFEVKIVSKGRDGYMGIGLSAQGVNMNRLPGWDKHSYGYHGDDGHSFCSSGTGQPYGPTFTTGDVIGCCVNLINNTCFYTKNGHSLGIAFTDLPPNLYPTVGLQTPGEVVDANFGQHPFVFDIEDYMREWRTKIQAQIDRFPIGDREGEWQTMIQKMVSSYLVHHGYCATAEAFARSTDQTVLEELASIKNRQRIQKLVLAGRMGEAIETTQQLYPSLLERNPNLLFTLKVRQFIEMVNGTDSEVRCLGGRSPKSQDSYPVSPRPFSSPSMSPSHGMNIHNLASGKGSTAHFSGFESCSNGVISNKAHQSYCHSNKHQSSNLNVPELNSINMSRSQQVNNFTSNDVDMETDHYSNGVGETSSNGFLNGSSKHDHEMEDCDTEMEVDSSQLRRQLCGGSQAAIERMIHFGRELQAMSEQLRRDCGKNTANKKMLKDAFSLLAYSDPWNSPVGNQLDPIQREPVCSALNSAILETHNLPKQPPLALAMGQATQCLGLMARSGIGSCAFATVEDYLH | 0.69
Q9Y570 (protein, UniProt Q9Y570 1-386, looked up, full-length) MSALEKSMHLGRLPSRPPLPGSGGSQSGAKMRMGPGRKRDFSPVPWSQYFESMEDVEVENETGKDTFRVYKSGSEGPVLLLLHGGGHSALSWAVFTAAIISRVQCRIVALDLRSHGETKVKNPEDLSAETMAKDVGNVVEAMYGDLPPPIMLIGHSMGGAIAVHTASSNLVPSLLGLCMIDVVEGTAMDALNSMQNFLRGRPKTFKSLENAIEWSVKSGQIRNLESARVSMVGQVKQCEGITSPEGSKSIVEGIIEEEEEDEEGSESISKRKKEDDMETKKDHPYTWRIELAKTEKYWDGWFRGLSNLFLSCPIPKLLLLAGVDRLDKDLTIGQMQGKFQMQVLPQCGHAVHEDAPDKVAEAVATFLIRHRFAEPIGGFQCVFPGC | 1.08
Q5VTE0 (protein, UniProt Q5VTE0 1-462, looked up, full-length) MGKEKTHINIVVIGHVDSGKSTTTGHLIYKCGGIDKRTIEKFEKEAAEMGKGSFKYAWVLDKLKAERERGITIDISLWKFETSKYYVTIIDAPGHRDFIKNMITGTSQADCAVLIVAAGVGEFEAGISKNGQTREHALLAYTLGVKQLIVGVNKMDSTEPPYSQKRYEEIVKEVSTYIKKIGYNPDTVAFVPISGWNGDNMLEPSANMPWFKGWKVTRKDGNASGTTLLEALDCILPPTRPTDKPLRLPLQDVYKIGGIGTVPVGRVETGVLKPGMVVTFAPVNVTTEVKSVEMHHEALSEALPGDNVGFKVKNVSVKDVRRGNVAGDSKNDPPMEAAGFTAQVIILNHPGQISAGYAPVLDCHMAHIACKFAELKEKIDRRSGKKLEDGPKFLKSGDAAIVDMVPGKPMCVESFSDYPPLGRFAVRDMRQTVAVGVIKAVDKKAAGAGKVTKSAQKAQKAK | 1.30
Q9H853 (protein, UniProt Q9H853 1-241, looked up, full-length) MRHQQTERQDPSQPLSRQHGTYRQIFHPEQLITGKEDAANNYAWGHYTIGKEFIDLLLDRIRKLADQCTGLQGFLVFHSLGRGTGSDVTSFLMEWLSVNYGKKSKLGFSIYPAPQVSTAMVQPYNSILTTHTTLEHSDCAFMVDNKAIYDICHCNLDIERPTYTNLNRLISQIVSSITASLRFDGALNVDLTEFQTNLVSYLTSTSPWPPMHQSSLQKRYTTSSCWWQRLPMPALSLPTRW | 0.69
P0C7P4 (protein, UniProt P0C7P4 1-283, looked up, full-length) MQQIYTVKEIRSVAARSGPFAPVLSATSRGVAGALRPLVQATVPATPEQPVLDLKRPFLSRESLSGQAVRRPLVASVGLNVPASVCYSHTDIKVPDFSEYRRLEVLDSTKSSRESTEARKGFSYLVTGVTTVGVAYAAKNAVTQFVSSMSASADVLALAKIEIKLSDIPEGKNMAFKWRGKPLFVRHRTQKEIKQEAAVELSQLRDPQHDLDRVKKPEWVILIGVCTHLGCVPIANAGDFGGYYCPCHGSHYDASGRIRLGPATLNLEVPTYEFTSDDMVIVG | 1.07
A8MUU1 (protein, UniProt A8MUU1 1-101, looked up, full-length) MGAMAKPDCIITCDSKNLTIKTESTLKTTQFSGTLGEKFEENTADGRRTQTVCNFTDGALVQHQEWDGKESTITRKLKDGKLVVERVMNHVACTRIYEKAQ | 0.80
A6NEC2 (protein, UniProt A6NEC2 1-478, looked up, full-length) MWLAAAAPSLARRLLFLGPPPPPLLLLVFSRSSRRRLHSLGLAAMPEKRPFERLPADVSPINCSLCLKPDLLDFTFEGKLEAAAQVRQATNQIVMNCADIDIITASYAPEGDEEIHATGFNYQNEDEKVTLSFPSTLQTGTGTLKIDFVGELNDKMKGFYRSKYTTPSGEVRYAAVTQFEATDARRAFPCWDERAIKATFDISLVVPKDRVALSNMNVIDRKPYPDDENLVEVKFARTPVTSTYLVAFVVGEYDFVETRSKDGVCVCVYTPVGKAEQGKFALEVAAKTLPFYKDYFNVPYPLPKIDLIAIADFAAGAMENWDLVTYRETALLIDPKNSCSSSRQWVALVVGHELAHQWFGNLVTMEWWTHLRLNEGFASWIEYLCVDHCFPEYDIWTQFVSADYTRAQELDALDNSHPIEVSVGHPSEVDEIFDAISYSKGASVIRMLHDYIGDKDFKKGMNMYLTKFQQKNAAAGNL | 0.69
Q6DN03 (protein, UniProt Q6DN03 1-193, looked up, full-length) MPEPAKFAPAPKKGSKKAVTKAQKKDGKKRKRSRKESYSIYVYKVLKRVHPDTGIWCKAMGIMNSFLNDIFERIAGEASRLAHYNKRSTITSRRSRRPCACCCPASWPSTPCPRAPRRSPSTPAPSESLPGPGARSLPPSLPPRVAGCFVSKGSFQGHLTTSVKESFLCCQSQLMFLASRLVNFRRAHNTKHR | 1.09
Q9P2E7 (protein, UniProt Q9P2E7 1-1040, looked up, full-length) MIVLLLFALLWMVEGVFSQLHYTVQEEQEHGTFVGNIAEDLGLDITKLSARGFQTVPNSRTPYLDLNLETGVLYVNEKIDREQICKQSPSCVLHLEVFLENPLELFQVEIEVLDINDNPPSFPEPDLTVEISESATPGTRFPLESAFDPDVGTNSLRDYEITPNSYFSLDVQTQGDGNRFAELVLEKPLDREQQAVHRYVLTAVDGGGGGGVGEGGGGGGGAGLPPQQQRTGTALLTIRVLDSNDNVPAFDQPVYTVSLPENSPPGTLVIQLNATDPDEGQNGEVVYSFSSHISPRARELFGLSPRTGRLEVSGELDYEESPVYQVYVQAKDLGPNAVPAHCKVLVRVLDANDNAPEISFSTVKEAVSEGAAPGTVVALFSVTDRDSEENGQVQCELLGDVPFRLKSSFKNYYTIVTEAPLDREAGDSYTLTVVARDRGEPALSTSKSIQVQVSDVNDNAPRFSQPVYDVYVTENNVPGAYIYAVSATDRDEGANAQLAYSILECQIQGMSVFTYVSINSENGYLYALRSFDYEQLKDFSFQVEARDAGSPQALAGNATVNILIVDQNDNAPAIVAPLPGRNGTPAREVLPRSAEPGYLLTRVAAVDADDGENARLTYSIVRGNEMNLFRMDWRTGELRTARRVPAKRDPQRPYELVIEVRDHGQPPLSSTATLVVQLVDGAVEPQGGGGSGGGGSGEHQRPSRSGGGETSLDLTLILIIALGSVSFIFLLAMIVLAVRCQKEKKLNIYTCLASDCCLCCCCCGGGGSTCCGRQARARKKKLSKSDIMLVQSSNVPSNPAQVPIEESGGFGSHHHNQNYCYQVCLTPESAKTDLMFLKPCSPSRSTDTEHNPCGAIVTGYTDQQPDIISNGSILSNETKHQRAELSYLVDRPRRVNSSAFQEADIVSSKDSGHGDSEQGDSDHDATNRAQSAGMDLFSNCTEECKALGHSDRCWMPSFVPSDGRQAADYRSNLHVPGMDSVPDTEVFETPEAQPGAERSFSTFGKEKALHSTLERKELDGLLTNTRAPYKPPYLTRKRIC | 0.78
Q9NVS9 (protein, UniProt Q9NVS9 1-261, looked up, full-length) MTCWLRGVTATFGRPAEWPGYLSHLCGRSAAMDLGPMRKSYRGDREAFEETHLTSLDPVKQFAAWFEEAVQCPDIGEANAMCLATCTRDGKPSARMLLLKGFGKDGFRFFTNFESRKGKELDSNPFASLVFYWEPLNRQVRVEGPVKKLPEEEAECYFHSRPKSSQIGAVVSHQSSVIPDREYLRKKNEELEQLYQDQEVPKPKSWGGYVLYPQVMEFWQGQTNRLHDRIVFRRGLPTGDSPLGPMTHRGEEDWLYERLAP | 0.81
Q6GMV3 (protein, UniProt Q6GMV3 1-140, looked up, full-length) MHRGVGPAFRVVRKMAASGAEPQVLVQYLVLRKDLSQAPFSWPAGALVAQACHAATAALHTHRDHPHTAAYLQELGRMRKVVLEAPDETTLKELAETLQQKNIDHMLWLEQPENIATCIALRPYPKEEVGQYLKKFRLFK | 0.67
